Results from the supplement of paper PMC12889115.
Some of the results follow. Values are raw readings; no control value is given beside them.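 In the initial screen, polymyxin B was used at a concentration that permeabilizes Salmonella's outer membrane but not its inner membrane. Maximum growth was set by DMSO wells with or without polymyxin B. Since plates varied, data were ranked per plate, and compounds giving the lowest OD600 advanced as hits.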

Tested on: Salmonella enterica serovar Typhimurium SL1344
Test: bacterial growth OD600 after 18 h with compound and polymyxin B; higher = more bacterial growth (less inhibition)
Settings: 50 µM, Mueller-Hinton broth

Q: How did the “bacterial growth OD600” value (polymyxin B 0.75 µg/mL) turn out when `O=C(C1CCCN(Cc2ccco2)C1)N1CCc2[nH]nc(-c3ccccc3F)c2C1` (centres undefined) was run?
A: 0.819

Q: `CC(NC(=O)c1csc2nc(-c3ccccc3)cn12)c1cnn(C)c1` (centres undefined) was tested. Which “bacterial growth OD600” value (polymyxin B 1 µg/mL) did it give?
A: 1.18

Q: For `O=C(CCc1nnc(-c2ccc3c(c2)OCO3)o1)N1CCCCCCC1`, which “bacterial growth OD600” value (polymyxin B 0.75 µg/mL) is on record?
A: 0.964

Q: Which “bacterial growth OD600” value (polymyxin B 1 µg/mL) does the source give for `c1cncc(-c2ncc3c(n2)CCCC3NC2CCOCC2)c1` (centres undefined) here?
A: 0.767

Q: `COC(=O)[C@@H]1CCCN1C(=O)Cc1ccc(N2CCC(NCCc3ccco3)CC2)cc1` was tested. Which “bacterial growth OD600” value (polymyxin B 0.75 µg/mL) did it give?
A: 0.877

Q: Which “bacterial growth OD600” value (polymyxin B 1 µg/mL) does the source give for `COc1ccccc1OCC(=O)NCC1CCCN(C(=O)c2ccccc2SC)C1` (centres undefined) here?
A: 0.953

Q: How did the “bacterial growth OD600” value (polymyxin B 1 µg/mL) turn out when `COc1cc(CN2CCN(Cc3ccc(OC)c(C)c3C)C(CCO)C2)ccc1O` (centres undefined) was run?
A: 0.956

Q: How did the “bacterial growth OD600” value (polymyxin B 0.75 µg/mL) turn out when `COc1ccc(-c2nc(CN(C)Cc3nnc(C)o3)c(C)o2)c(OC)c1C` was run?
A: 0.81

Q: For `COC(C(=O)NCc1c(C)ncc2c1CCN(C(=O)Cc1ccc(F)c(F)c1)C2)c1ccccc1` (centres undefined), which “bacterial growth OD600” value (polymyxin B 0.75 µg/mL) is on record?
A: 0.821

Q: How did the “bacterial growth OD600” value (polymyxin B 1 µg/mL) turn out when `COc1ccc(-c2noc(CN3CCC(Sc4ccc(C)cc4)CC3)n2)cc1` was run?
A: 0.811

Q: Which “bacterial growth OD600” value (polymyxin B 0.75 µg/mL) does the source give for `Cc1nc(-c2ccncc2)ncc1C(C)NC1CCN(C(C)C)CC1` (centres undefined) here?
A: 0.835

Q: For `Cc1ccc(CNC(=O)c2ccc(OC3CCN(C(=O)C4CC4)CC3)cc2)s1`, which “bacterial growth OD600” value (polymyxin B 1 µg/mL) is on record?
A: 1.1

Q: How did the “bacterial growth OD600” value (polymyxin B 0.75 µg/mL) turn out when `CC(Cc1cccnc1)NC1CCN(c2ccc(CC(=O)NCCc3cccc(F)c3)cc2)CC1` (centres undefined) was run?
A: 0.877

Q: For `CC(=O)c1cccc(CN2CCCC(C(=O)Nc3ccc(-n4ccnc4C)cc3)C2)c1` (centres undefined), which “bacterial growth OD600” value (polymyxin B 1 µg/mL) is on record?
A: 0.826

Q: `CCS(=O)(=O)c1ncc(CN2CCCCO2)n1CCCc1ccccc1` was tested. Which “bacterial growth OD600” value (polymyxin B 1 µg/mL) did it give?
A: 1.1

Q: With `CCOC(=O)N1CCC(NC2CCN(c3ccc(C(=O)NCCN4CCOCC4)cc3)CC2)CC1` as the compound, how does the “bacterial growth OD600” value (polymyxin B 0.75 µg/mL) read?
A: 0.759

Q: With `O=C(c1ccccc1OC1CCN(Cc2ccccn2)CC1)N1CCC[C@H]1CO` as the compound, how does the “bacterial growth OD600” value (polymyxin B 1 µg/mL) read?
A: 0.857

Q: For `CCn1ccnc1CN1C[C@H]2OC(=O)N(CCc3ccc(OC)cc3)[C@H]2C1`, which “bacterial growth OD600” value (polymyxin B 0.75 µg/mL) is on record?
A: 0.806

Q: How did the “bacterial growth OD600” value (polymyxin B 0.75 µg/mL) turn out when `COCCN1C(=O)NC(Cc2ccc(F)cc2)(C2CCN(C(=O)CCC(C)C)CC2)C1=O` (centres undefined) was run?
A: 0.852
